Assay results reported in PubChem BioAssay AID248 (DTP/NCI, 2004).
The list does not hold the whole screen: it gathers tests that were run many times, whatever their T/C, doses with no T/C, and many T/C values between a quarter and a half above the control. Other doses and runs of a compound stand elsewhere. T/C gives the treated animals as a percentage of the vehicle group. Some entries give survivors of the animals treated and no T/C: the source files T/C as zero there, which appears to mark a toxic dose or a test without result, not a measured value. Some survivor counts are full or nearly so, which does not show that the dose was tolerated: the source hardly ever lists a survival T/C far under the control, and the zero likely stands for such cases as well. Counts of survivors are from the toxicity check (mostly the fifth day) where no day follows; animals may have died later. Schedules are NCI's codes, read here as Q, the interval in days (D) or hours (H), X, the number of doses. Some doses were run more than once; their values stand side by side, smallest first. Where survival is the endpoint, this PubChem deposit counts one and a half times the control or more as active, and values a quarter to a half above the control carry no call in these data; other NCI protocols may use other cut-offs. Some T/C values are followed by the survivors on the day toxicity was checked, most often the fifth; where none is given, no animal had died by that day.

Test system: L1210 leukemia ip in BDF1 mice, survival T/C
Assay: NCI In Vivo Anticancer Drug Screen. Data for tumor model L1210 Leukemia (intraperitoneal) in B6D2F1 (BDF1) mice
Details: T/C endpoint: mean survival time, higher T/C = longer survival
[1] = dose: 200.0 mg/kg/injection, schedule: Q01DX009 (ip), vehicle: saline with Tween-80
[2] = dose: 400.0 mg/kg/injection, schedule: Q01DX009 (ip), vehicle: saline with Tween-80
[3] = dose: 25.0 mg/kg/injection, schedule: Q01DX009 (ip), vehicle: saline with Tween-80
[4] = dose: 400.0 mg/kg/injection, schedule: Q04DX002 (ip), vehicle: Klucel (hydroxypropylcellulose) (HPC)
[5] = dose: 100.0 mg/kg/injection, schedule: Q04DX003 (ip), vehicle: saline
[6] = dose: 200.0 mg/kg/injection, schedule: Q04DX003 (ip), vehicle: saline
[7] = dose: 400.0 mg/kg/injection, schedule: Q04DX003 (ip), vehicle: saline
[8] = dose: 200.0 mg/kg/injection, schedule: Q01DX001 (ip), vehicle: saline
[9] = dose: 400.0 mg/kg/injection, schedule: Q04DX003 (ip), vehicle: saline with Tween-80
[10] = dose: 80.0 mg/kg/injection, schedule: Q01DX009 (ip), vehicle: saline
[11] = dose: 400.0 mg/kg/injection, schedule: Q01DX001 (ip), vehicle: saline
[12] = dose: 100.0 mg/kg/injection, schedule: Q01DX009 (ip), vehicle: saline with Tween-80

In the case of COC(=O)c1ccc(OC(=O)Nc2ccccc2F)cc1, the survivor count [1] is reported as 2 of 6 and the survivor count [2] is reported as 0 of 6.
For COC(=O)c1ccccc1C[P+](c1ccccc1)(c1ccccc1)c1ccccc1, the survivor count (dose: 12.5 mg/kg/injection, schedule: Q01DX001 (ip), vehicle: saline with Tween-80) was 3 of 6, the survivor count (dose: 12.5 mg/kg/injection, schedule: Q01DX009 (ip), vehicle: saline with Tween-80) was 1 of 3 and 2 of 6 and the survivor count (dose: 12.5 mg/kg/injection, schedule: Q01DX009 (ip), vehicle: saline) was 2 of 3 and 4 of 6. The survivor count [3] was 3 of 6 and 2 of 3, the survivor count (dose: 50.0 mg/kg/injection, schedule: Q04DX002 (ip), vehicle: saline with Tween-80) was 4 of 6 and 3 of 3 and the survivor count (dose: 100.0 mg/kg/injection, schedule: Q04DX002 (ip), vehicle: Klucel (hydroxypropylcellulose) (HPC)) was 0 of 3 and 0 of 6. The survivor count (dose: 100.0 mg/kg/injection, schedule: Q04DX002 (ip), vehicle: saline with Tween-80) was 0 of 3 and 0 of 6, the survivor count (dose: 200.0 mg/kg/injection, schedule: Q04DX002 (ip), vehicle: Klucel (hydroxypropylcellulose) (HPC)) was 0 of 3 and 0 of 6 and the survivor count [4] was 0 of 3 and 0 of 6.
[Cl][Hg][Cl].c1cnccn1 was tested, and the survivor count (dose: 16.0 mg/kg/injection, schedule: Q04DX003 (ip), vehicle: saline with Tween-80) was 5 of 6 and the survivor count (dose: 32.0 mg/kg/injection, schedule: Q04DX003 (ip), vehicle: saline with Tween-80) was 1 of 6.
With Cc1ccc(C#N)s1 the T/C (dose: 25.0 mg/kg/injection, schedule: Q04DX003 (ip), vehicle: saline) was 127 % of control, the T/C (dose: 35.0 mg/kg/injection, schedule: Q04DX003 (ip), vehicle: saline) was 125 % of control [5 of 6 alive] and the survivor count (dose: 50.0 mg/kg/injection, schedule: Q01DX009 (ip), vehicle: other) was 1 of 6. For the same molecule, the survivor count (dose: 50.0 mg/kg/injection, schedule: Q04DX003 (ip), vehicle: saline) was 0 of 6, the survivor count [5] was 0 of 6 and 3 of 6 and the survivor count [6] was 2 of 6. The survivor count [7] was 0 of 6.
For CCc1cccc(CC)c1NC(=O)NS(=O)(=O)c1ccccc1, the survivor count [2] was 1 of 6.
O=C(O)c1c(Br)c(Br)c(Br)c(Br)c1C(=O)Nc1ccccc1F was tested, and the survivor count (dose: 400.0 mg/kg/injection, schedule: Q01DX009 (ip), vehicle: Klucel (hydroxypropylcellulose) (HPC)) was 0 of 6.
With O=C(NC1CCC(NC(=O)N2CC2)CC1)N1CC1 (stereo unspecified) the T/C (dose: 0.25 mg/kg/injection, schedule: Q01DX009 (ip), vehicle: carboxymethylcellulose (CMC)) was 130 % of control, the T/C (dose: 0.44 mg/kg/injection, schedule: Q01DX009 (ip), vehicle: carboxymethylcellulose (CMC)) was 129 % of control and the T/C (dose: 0.5 mg/kg/injection, schedule: Q01DX009 (ip), vehicle: carboxymethylcellulose (CMC)) was 142 % of control. For the same molecule, the T/C (dose: 0.66 mg/kg/injection, schedule: Q01DX009 (ip), vehicle: carboxymethylcellulose (CMC)) was 146 % of control, the T/C (dose: 3.0 mg/kg/injection, schedule: Q01DX001 (ip), vehicle: carboxymethylcellulose (CMC)) was 139 and 145 % of control and the survivor count (dose: 3.0 mg/kg/injection, schedule: Q01DX009 (ip), vehicle: carboxymethylcellulose (CMC)) was 6 of 6. For the same molecule, the T/C (dose: 4.5 mg/kg/injection, schedule: Q01DX001 (ip), vehicle: carboxymethylcellulose (CMC)) was 138 % of control, the survivor count (dose: 4.5 mg/kg/injection, schedule: Q01DX009 (ip), vehicle: carboxymethylcellulose (CMC)) was 6 of 6 and the survivor count (dose: 6.0 mg/kg/injection, schedule: Q01DX001 (ip), vehicle: carboxymethylcellulose (CMC)) was 4 of 4. For the same molecule, the survivor count (dose: 12.0 mg/kg/injection, schedule: Q01DX001 (ip), vehicle: carboxymethylcellulose (CMC)) was 1 of 4, the survivor count (dose: 100.0 mg/kg/injection, schedule: Q01DX001 (ip), vehicle: carboxymethylcellulose (CMC)) was 1 of 4 and the survivor count (dose: 200.0 mg/kg/injection, schedule: Q01DX001 (ip), vehicle: carboxymethylcellulose (CMC)) was 0 of 4. For the same molecule, the survivor count (dose: 400.0 mg/kg/injection, schedule: Q01DX001 (ip), vehicle: carboxymethylcellulose (CMC)) was 0 of 4.
In the case of O=C(CCCC(=O)N/N=C/c1ccccc1O)N/N=C\c1ccccc1O, the survivor count [8] is reported as 4 of 4.
Cc1c(Cl)nc(Cl)nc1Cl was tested, and the survivor count (dose: 300.0 mg/kg/injection, schedule: Q01DX015 (ip), vehicle: carboxymethylcellulose (CMC)) was 4 of 6.
For C/C(CC(C)C)=N\NC(=O)Nc1cccc(Cl)c1C, the survivor count [4] was 3 of 3.
Nc1ccc(I)cc1 was tested, and the survivor count [9] was 6 of 6.
With NC(=O)C(NC(=O)Nc1ccccc1)C(N)=O the survivor count (dose: 200.0 mg/kg/injection, schedule: Q04DX003 (ip), vehicle: gum acacia) was 5 of 6 and the survivor count (dose: 400.0 mg/kg/injection, schedule: Q04DX003 (ip), vehicle: gum acacia) was 2 of 6.
With O=C(CCN1CC1)OCCCCOC(=O)CCN1CC1 the T/C (dose: 10.0 mg/kg/injection, schedule: Q01DX009 (ip), vehicle: saline) was 128 % of control, the survivor count (dose: 40.0 mg/kg/injection, schedule: Q01DX009 (ip), vehicle: saline) was 2 of 6 and the survivor count [10] was 2 of 6. For the same molecule, the survivor count [5] was 5 of 6, the survivor count [6] was 0 of 6 and the survivor count [7] was 0 of 6.
With Cc1cc(N(C)C)cc(C)c1C(=Nc1ccc(N=C(NO)c2c(C)cc(N(C)C)cc2C)cc1)NO the survivor count [11] was 1 of 4.
CCC[CH2][Ge]([CH2]CCC)[O][Ge]([CH2]CCC)[CH2]CCC was tested, and the survivor count (dose: 200.0 mg/kg/injection, schedule: Q04DX002 (ip), vehicle: saline with Tween-80) was 2 of 3 and the survivor count (dose: 400.0 mg/kg/injection, schedule: Q04DX002 (ip), vehicle: saline with Tween-80) was 0 of 3.
O=C(O)c1ccc2c3c(ccc(C(=O)O)c13)CC2 was tested, and the survivor count [8] was 2 of 6 and the survivor count [11] was 3 of 6.
In the case of c1ccc(CNNC2=NCCN2)cc1, the survivor count [8] is reported as 1 of 6.
With O=C(O)C1CCCC[N-]1.O=C(O)C1CCCC[N-]1.O=C(O)C1CCCC[N-]1.O=C(O)C1CCCC[N-]1.[Cl][Rh][Cl] (stereo unspecified) the survivor count (dose: 200.0 mg/kg/injection, schedule: Q01DX009 (ip), vehicle: saline) was 4 of 6 and the survivor count (dose: 400.0 mg/kg/injection, schedule: Q01DX009 (ip), vehicle: saline) was 0 of 6.
O=C(CNC(=O)c1ccc(Cl)cc1Cl)N/N=C/c1cccc([N+](=O)[O-])c1 was tested, and the survivor count [3] was 3 of 3, the survivor count (dose: 50.0 mg/kg/injection, schedule: Q01DX009 (ip), vehicle: saline with Tween-80) was 3 of 3 and the survivor count [12] was 1 of 3. For the same molecule, the survivor count [1] was 1 of 3.
In the case of CCC(CC)(CC)OC(=O)NS(=O)(=O)c1ccc(Cl)cc1, the survivor count (dose: 200.0 mg/kg/injection, schedule: Q01DX009 (ip), vehicle: acetone) is reported as 3 of 6 and the survivor count (dose: 400.0 mg/kg/injection, schedule: Q01DX009 (ip), vehicle: acetone) is reported as 0 of 6.
For CCCCCCCCCCCCNC(=O)c1ccc[n+](C)c1, the survivor count (dose: 35.0 mg/kg/injection, schedule: Q01DX009 (ip), vehicle: saline) was 1 of 6, the survivor count (dose: 50.0 mg/kg/injection, schedule: Q01DX001 (ip), vehicle: saline) was 3 of 6 and the survivor count (dose: 55.0 mg/kg/injection, schedule: Q01DX009 (ip), vehicle: saline) was 4 of 6. For the same molecule, the survivor count [10] was 0 of 6, the survivor count (dose: 100.0 mg/kg/injection, schedule: Q01DX001 (ip), vehicle: saline) was 2 of 6 and the survivor count [8] was 0 of 6. The survivor count [11] was 0 of 6.
In the case of COc1cc(C2NC(=S)NC2=S)ccc1O (stereo unspecified), the survivor count [12] is reported as 6 of 6, the survivor count (dose: 200.0 mg/kg/injection, schedule: Q04DX003 (ip), vehicle: saline with Tween-80) is reported as 6 of 6 and the survivor count [9] is reported as 3 of 6.
